# In the supplement of paper PMC3334620:
# The full ranking holds about 33,000 sequences; the median of “E-score (-0.5 to 0.5)” is about -0.0014, and the highest 2% start at about 0.25. The list shows a part of the results.
# Target: T1, Cad1 (UniProt P24813)
# T1 sequence: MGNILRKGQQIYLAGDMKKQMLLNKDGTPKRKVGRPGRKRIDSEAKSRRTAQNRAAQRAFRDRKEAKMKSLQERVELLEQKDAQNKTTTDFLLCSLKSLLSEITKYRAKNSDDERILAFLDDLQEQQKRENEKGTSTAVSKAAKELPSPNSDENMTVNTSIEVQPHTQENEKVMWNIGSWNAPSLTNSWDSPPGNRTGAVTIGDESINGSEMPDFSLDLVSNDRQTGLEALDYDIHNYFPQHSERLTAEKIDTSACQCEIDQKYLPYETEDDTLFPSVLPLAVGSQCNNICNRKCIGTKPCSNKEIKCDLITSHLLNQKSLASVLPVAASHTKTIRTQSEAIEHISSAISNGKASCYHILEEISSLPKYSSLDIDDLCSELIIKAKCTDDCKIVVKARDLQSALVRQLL
# Test: PBM E-score (8-mer binding enrichment) (E-score (-0.5 to 0.5)); higher = stronger / more preferred TF binding
# Conditions: protein concentration: 100 nM; construct: GST-full length
# Summary of the method: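 Universal all-10-mer Agilent arrays, double-stranded by primer extension on fresh or once-stripped slides, were probed with about 100-200 nM GST-tagged yeast transcription factors made by PURExpress. Fluorescent anti-GST detected bound protein, and masliner normalised the scans. E-scores from the Universal PBM Analysis Suite were given to each ungapped eight-base word pooled with its reverse complement.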
row,Sequence,PBM E-score
1,GCAAATGC,-0.0592
2,CGGACGTA,-0.12
3,AATTAGGT,0.17
4,CGTTAGTC,0.042
5,ATCTCCCG,-0.0893
6,ACTAGGAA,-0.0774
7,AAACGCGG,0.0458
8,ATGGCTAA,0.00749
9,ATAGCTAA,0.0748
10,CTCTACAG,-0.115
11,CAGTTCTA,0.0289
12,AAGATTCT,-0.0858
13,GGATGTAC,-0.0446
14,GTTCACGA,0.0636
15,GCATTCGC,-0.227
16,AATGATCA,0.119
17,AACGGTAC,0.178
18,CTACTTTA,-0.0669
19,CTCGTGTC,-0.0216
20,AGCCAGCA,-0.312
21,TGAGTCAA,-0.043
22,GCCTCAGC,-0.0857
23,AATTATGC,0.0336
24,CATCTATA,-0.0909
25,GAGCAGTA,0.11

# As entered above.
# GCATTCGC – PBM E-score: -0.227
# AATGATCA – PBM E-score: 0.119

# Next records follow:

row,Sequence,PBM E-score
1,CCGCCCGG,-0.0789
2,ATTCCGGC,0.0166
3,CAAACACC,0.042
4,CAGCGTCC,0.064
5,GATGAGTA,0.0996
6,CAATCTGC,-0.0882
7,GACTCAAA,-0.0319
8,CTCTAAGA,-0.0506
9,CTATTATC,0.0972
10,AACGCTCA,-0.0578
11,CCACTTAG,0.021
12,CCTGCCCC,-0.336
13,CAAACCTC,-0.126
14,CGGGATGA,0.0883
15,CAGTTTAG,-0.0299
16,CTCAAAAC,-0.133
17,CCCTCGTC,-0.23
18,CGTCCTGA,-0.00878
19,GATTCACA,-0.08
20,AAAACCTG,-0.1
21,GTCTCAAA,-0.0829
22,CAAAACCA,0.104
23,ATAAGTGC,0.0702
24,GAATCTTA,0.0927
25,GTCTTACA,-0.108

# Reprinted at random: 3 entries already listed
row,Sequence,PBM E-score
7,GACTCAAA,-0.0319
24,GAATCTTA,0.0927
23,ATAAGTGC,0.0702

# Later entries.

row,Sequence,PBM E-score
1,ACAGCTTC,0.0271
2,GTGGCTGA,-0.105
3,GTAGGGAA,0.0374
4,ACCTGCGA,-0.203
5,GCAGAACC,-0.0185
6,CAAATTCG,0.118
7,TCAAAAGA,-0.0817
8,GCCGGTAA,0.0907
9,CATCTCGA,0.0431
10,CCGGCCTC,-0.158
11,ATAGTTCC,0.00211
12,AACTAACT,-0.0923
13,GTAGTGCA,0.0845
14,ACACGACC,-0.00841
15,AGACTTGG,-0.248
16,CCATCACG,0.054
17,GGCATCAA,-0.135
18,CAAATAGG,0.0602
19,CTGCTCAC,-0.0643
20,GAACTGTA,0.0769
21,CTGTCAAC,0.00496
22,GACGACCA,-0.0746
23,ACAACATA,0.23
24,AATCAGCA,0.258
25,CTGATGGC,-0.0751

row,Sequence,PBM E-score
1,GTATTCTA,0.138
2,ATTGTTAG,0.0937
3,AATTCGCG,0.192
4,AGGATAAA,0.207
5,ACCAACGC,-0.00258
6,AGGAAACA,0.141
7,CCTTCTGC,-0.16
8,AATTTGTA,0.196
9,TAGCTCGA,0.0489
10,GCCGTAGA,0.19
11,GGTAAGTA,0.0365
12,AAAAGCAA,0.127
13,ATCCCGAC,0.0376
14,ATTGGTAG,0.0517
15,AGGGGCAG,-0.197
16,ACAAGACA,0.0654
17,ACCGATAC,0.00087
18,GAATCGCA,-0.0784
19,CGTAGCGC,-0.0945
20,GCTTCTTA,0.043
21,CGTAGTAG,0.0011
22,ATACGGAG,-0.12
23,ATTTCGAG,0.181
24,AATAGCAA,0.199
25,ATGCGTTA,0.125

row,Sequence,PBM E-score
1,ATGCGAAC,-0.0513
2,GGTCTTTA,-0.0378
3,AACCTGCT,-0.113
4,CCGCGCTC,0.097
5,CATTTACG,-0.141
6,AATCGAGA,0.0959
7,ATCGTTAG,0.108
8,ATGCCTAC,-0.0355
9,GTTTGTCA,0.317
10,AGAATTAG,0.00824
11,ATAATCTC,0.0934
12,TGAAGCAA,0.0525
13,CCTGACTA,0.351
14,AGAGTTAA,-0.00997
15,CGGTCGGC,-0.204
16,AACGAGGA,0.0212
17,GAACCCGC,-0.191
18,GGAATTCC,-0.00382
19,AATAGTGG,0.134
20,TCTAAGCA,0.127
21,AAAAATCT,0.0732
22,GCAACCGA,0.175
23,GGATGTGA,-0.0236
24,CGAAGTTC,0.0863
25,AACCCGTG,-0.317

row,Sequence,PBM E-score
1,AACTTGCC,-0.118
2,CACCAATG,-0.0866
3,AGAAAAGA,-0.0414
4,GAACTCGA,0.0968
5,TCTACGCA,0.0654
6,AGAGTCGG,-0.242
7,CGTTTAAA,0.0598
8,GAAGACAC,-0.131
9,CCGATGGA,-0.0825
10,GACCTCGC,-0.175
11,CAGTTTAC,0.0325
12,AGTTTAGC,0.0227
13,AATGCACG,-0.0908
14,AGCCACAA,0.0357
15,ATAATCCC,-0.033
16,AAGTCACG,0.0108
17,CAAAATCC,0.0455
18,ATAACCAA,0.179
19,GTTCTTAA,0.109
20,CTTTCTGC,-0.0256
21,GCAGTCCC,-0.187
22,GGGGTGAA,-0.22
23,CTTAATCC,-0.0139
24,CATCGGTA,-0.0604
25,ATTGGTGG,0.0593

row,Sequence,PBM E-score
1,ACGTACAT,0.135
2,CCGTGAAG,-0.0979
3,GTCATAGA,0.024
4,ACCTGACT,0.156
5,AAACGGAT,0.243
6,GCACTTAA,0.115
7,GCCGAATA,0.0852
8,CACGCCTC,-0.0988
9,CCGAGGCA,-0.00745
10,ATTGCTCG,0.136
11,CCGTCTAC,-0.0134
12,CTTTCAAA,0.244
13,CATCATCC,0.0445
14,CCTAGTAA,-0.106
15,AATGTACA,0.0976
16,CCATGCGC,-0.00411
17,AATTGGAC,0.107
18,ACGCAGTC,-0.189
19,GGCTACGA,-0.0271
20,AGGACCCA,-0.22
21,CTCGACCA,-0.186
22,AACTATAG,-0.096
